In US20160009795A1 (BIOCARE MEDICAL, published 2016) one finds binding data, which are given here for one molecule.

These are yes or no findings as the source states them, for the method shown. Some entries that bind do so weakly or less than the wild type.

Assay [1] has as its target T1, p40 protein (human) (UniProt Q9H3D4).
T1 sequence (looked up): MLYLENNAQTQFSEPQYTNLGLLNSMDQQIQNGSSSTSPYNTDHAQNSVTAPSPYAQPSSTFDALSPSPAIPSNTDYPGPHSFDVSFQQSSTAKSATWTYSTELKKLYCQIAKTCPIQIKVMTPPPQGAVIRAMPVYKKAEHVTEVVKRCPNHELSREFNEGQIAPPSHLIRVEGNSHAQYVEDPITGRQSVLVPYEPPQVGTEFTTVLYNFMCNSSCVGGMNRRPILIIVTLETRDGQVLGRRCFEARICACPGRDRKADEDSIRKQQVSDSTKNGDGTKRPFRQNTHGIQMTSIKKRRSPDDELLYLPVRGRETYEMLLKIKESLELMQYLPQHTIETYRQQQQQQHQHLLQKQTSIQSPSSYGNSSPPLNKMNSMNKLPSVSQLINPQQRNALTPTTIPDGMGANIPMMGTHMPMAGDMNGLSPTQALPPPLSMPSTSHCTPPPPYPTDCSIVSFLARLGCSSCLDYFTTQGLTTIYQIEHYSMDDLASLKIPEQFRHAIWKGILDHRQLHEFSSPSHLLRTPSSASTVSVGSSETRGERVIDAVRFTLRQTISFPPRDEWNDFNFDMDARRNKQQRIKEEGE
The assay can be described thus: Western blot on p40 transfected cell lysate. For orientation: In western blotting, separated proteins are transferred to a membrane and probed.

For assay [2], the target named is T1, p40 protein (human). The assay can be described thus: ELISA, Western blot, IHC. In general terms: ELISA stands for enzyme-linked immunosorbent assay.

B1: mouse monoclonal anti-p40 antibody BC28 (antibody, mouse IgG1, V domains shown)
VH: GVKLVESGGGFVKPGGSLTLSCAASGFTFSIYAMSWVRQTPEKRLEWVTSISSGDDIFYPDNLKGQFTISRDNARNILYLQMSSLRSEDTAIYYCVRHGYNATDYWGQGTSVTVSS
VL: DVLMTQTPLSLPVSLGDQASISCRSSQSIVYSNGNTYLEWYLQKPGQSPKLLIYKVSNRFSGVPDRFSGSGSGTDFTLKISRVEAEDLGVYYCFQGSHVPFTFGSGTKLEIK
notes: also called p40 [BC28]; p40 (M)
For B1, the binding entry in assay [1] and in assay [2] was “binds” throughout.
